Results deposited as PubChem BioAssay AID504784 (Drosophila RNAi Screening Center, 2011).
The deposit covers about 17,000 reagents; shown is a random part of those that have a named target and a result. 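Each column is one replicate's B-score; the combined score over replicates was not deposited, so single values may mislead.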 The numbers tell different reagents against one gene apart. A plus sign joins genes that one reagent is predicted to hit.

Assay: 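Genome-wide knock-down for genes giving too much or too little stored lipid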 (primary screen)
System: Drosophila Kc167 embryonic cells
Reagents: long dsRNA against Drosophila genes, about 250 ng dsRNA per well
Timing: 4 days
Conditions: cells fed 400 µM oleic acid bound to BSA
Detection: 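Microscope images give a droplet-to-nucleus area ratio, taken as log and converted to a screen-wide B-score; higher values mean greater lipid storage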
Scale: droplet/nuclear area B-score: higher = more stored lipid (overstorage)

The opening 2 records as a preview:
predicted target	dsRNA no.	droplet/nuclear area B-score, replicate 1	droplet/nuclear area B-score, replicate 2	droplet/nuclear area B-score, replicate 3
CG32511 (retired record)	1	0.819	-0.000428	
Sce	1	-0.0529		

The list itself, from the start:
predicted target	dsRNA no.	droplet/nuclear area B-score, replicate 1	droplet/nuclear area B-score, replicate 2	droplet/nuclear area B-score, replicate 3
CG32511 (retired record)	1	0.819	-0.000428	
Sce	1	-0.0529		
CG8173	1	-0.237	0.399	
Mdh1 (retired record)	1	-0.736	0.0326	
CG7182	1	-0.785	0.451	
htl	1	-0.382	0.627	
vnc + CG42455	1	2.62		
CG8292	1	1.6	0.423	
CR42532	1	0.301	0.509	
Atg4b	1	-0.855	1.05	
CG12560	1	-1.93	-0.372	
CG14022	1	0.156	-0.592	
CG32551	1	-0.245	-1.56	
Ino80	1	-1.16	0.901	
Ino80	2	-1.68	-0.375	
Ino80	3	-0.152	-0.832	
CG14538 (retired record)	1	-0.0408	-0.00204	
Jhbp6	1	0.11	-0.158	
Spn43Aa	1	-0.811	0.694	
CG31088	1	0.113	0.0441	
CG1647	1	0.451		
Rga	1	1.52	0.286	
Not1	1	2.86	2.02	
Not1	2	7.14	3.03	
SpdS	1	1.28	-1.57	
Ptth	1	-1.16	0.104	
cdi	1	0.0237	-0.051	
Gr68a	1	0.989	0.0936	
BI-1	1	1.86	-0.575	
CG17991	1	-0.14	0.453	
CG11211	1	0.522	1.23	
Ir52b	1	1.08	2.17	
CG10859	1	-2.29	-0.83	
CG4374	1	-1.09	-0.0438	
Pdp1	1	-3.15	0.0379	
Pdp1	2	-1.39	-0.674	
Pdp1	3	0.0565	-0.0467	
Pdp1	4	3.72	2.82	
CG2006 + Spase12	1	-0.257	0.262	
pre-mod(mdg4)-W + pre-mod(mdg4)-Y + mod(mdg4) + 3 more	1	1.49	0.173	
in	1	-2.04	0.486	
rdgBbeta	1	1.42	-0.2	
Diedel3	1	-0.154	-0.804	
CG15080	1	0.0638	0.75	
CG1773	1	-1.24	0.584	
CG18748	1	1.7	1.37	
stet	1	-1.14	-1.02	
stet	2	1.09	0.959	
mip40	1	-0.305	-1.21	
Hexo1	1	-1.68	-0.739	
AnxB9	1	-0.693	-4.24	
CG42789	1	-0.531	-0.66	
CG5122	1	0.156	-0.0427	
CG44433	1	0.685	0.962	
CG44433	2	-0.638	0.996	
CNBP	1	-0.798	-2.14	
CNBP	2	-1.52	-0.251	-0.0252
CNBP	3	1.13	-0.912	
